# Measured values from the supplement of paper PMC9135407.
# Values joined by “and” are separate entries in the source; they are usually repeats but may differ in a detail not shown here. Identical values can stand only once. Counter-ions that a name gives are not always drawn. ± gives the standard deviation of the averaged measurements. Some of the results follow. Part of the spread comes from offsets between plates or batches.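 Primary human stellate myofibroblasts activated in culture; inactivation shown by regained lipid droplets. Readout: fraction of Hoechst-counted cells exceeding a per-plate Bodipy threshold, duplicate wells, each plate with DMSO negative and nortriptyline positive controls. Hits: control-normalized score beyond the plate's top-tenth-percentile nortriptyline wells, or among its three best wells. Final well concentrations unstated.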
# Test system: primary human hepatic stellate cells (donor 1)
# Test: percent Bodipy-positive cells; higher = more lipid droplet accumulation
# Conditions: 48 h
# [1] = library stock concentration: 10 mM
# [2] = library stock concentration: 3.33 mM
# [3] = library stock concentration: 80 uM
# [4] = library stock concentration: 400 uM
# [5] = library stock concentration: 1 mM
# [6] = library stock concentration: 2 mM
smiles,measurement,setting,value
O=S(c1ccccc1)c1ccc2nnnn2n1 (configuration not stated),percent Bodipy-positive cells,[1],81.6 ± 3.6%
CC(CN(C)C)CN1c2ccccc2Sc2ccccc21 (configuration not stated) [Trimeprazine tartrate],percent Bodipy-positive cells,,55.5 ± 11%
same,percent Bodipy-positive cells,[1],83.3 ± 3.2%
CC1(C)[C@@H](OC(=O)CCC(=O)O)CC[C@]2(C)[C@H]3C(=O)C=C4[C@@H]5C[C@@](C)(C(=O)O)CC[C@]5(C)CC[C@@]4(C)[C@]3(C)CC[C@@H]12 [Carbenoxolone disodium salt],percent Bodipy-positive cells,,8.11 ± 2.4%
CC1(C)[C@@H](OC(=O)CCC(=O)O)CC[C@]2(C)[C@H]3C(=O)C=C4[C@@H]5C[C@@](C)(C(=O)O)CC[C@]5(C)CC[C@@]4(C)[C@]3(C)CC[C@@H]12 [Carbenoxolone sodium],percent Bodipy-positive cells,[1],19.6 ± 3.4%
CCN(CC)CCCC(C)Nc1c2ccc(Cl)cc2nc2ccc(OC)cc12 (configuration not stated) [Quinacrine 2HCl dihydrate],percent Bodipy-positive cells,library stock concentration: 5 mM,98.1 ± 1.8%
Cn1cc(-c2ccc3c(c2)CCN3C(=O)Cc2cccc(C(F)(F)F)c2)c2c(N)ncnc21,percent Bodipy-positive cells,[2],38.9 ± 2.1%
same,percent Bodipy-positive cells,[1],80.6 ± 2.2%
Oc1cccc(-c2nc(N3CCOCC3)c3oc4ncccc4c3n2)c1,percent Bodipy-positive cells,[3],4.4 ± 0.11%
same,percent Bodipy-positive cells,[4],6.1% and 14.6%
same,percent Bodipy-positive cells,[5],8.93 ± 3%
same,percent Bodipy-positive cells,[6],17% and 17.9%
same,percent Bodipy-positive cells,[2],34.2% and 21.5%
same,percent Bodipy-positive cells,[1],79.3% and 58.5%
"C#CCn1c(=O)c2c(ncn2C)n(C)c1=O [3,7-Dimethyl-1-propargylxanthine]",percent Bodipy-positive cells,[1],39.7 ± 4.6%
Cc1cc(SCc2sc(-c3ccc(C(F)(F)F)cc3)nc2C)ccc1OCC(=O)O,percent Bodipy-positive cells,[3],12.4 ± 0.66%
same,percent Bodipy-positive cells,[4],9.3 ± 1.6%
same,percent Bodipy-positive cells,[6],9.59 ± 8.4%
same,percent Bodipy-positive cells,[1],23.3 ± 5%
CC(=O)OCC(=O)[C@H]1CC[C@H]2[C@@H]3CCC4=CC(=O)CC[C@]4(C)[C@H]3CC[C@]12C [Desoxycorticosterone acetate],percent Bodipy-positive cells,library stock concentration: 5.4 mM,6.45 ± 0.39%
same,percent Bodipy-positive cells,[1],37 ± 1.7%
CCCOc1ccc(C(=O)OCCN(CC)CC)cc1N [Proparacaine HCl],percent Bodipy-positive cells,[2],7.6 ± 0.51%
same,percent Bodipy-positive cells,[1],15.8 ± 6.4%
CCCOc1ccc(C(=O)OCCN(CC)CC)cc1N [Proxymetacaine],percent Bodipy-positive cells,[1],45 ± 1.6%
CCCOc1ccc(C(=O)OCCN(CC)CC)cc1N [Proparacaine hydrochloride],percent Bodipy-positive cells,,7.9 ± 1.1%
same,percent Bodipy-positive cells,library stock concentration: 6 mM,4.66 ± 2%
COC(=O)Nc1ccc2[nH]cc(CCNC(C)=O)c2c1,percent Bodipy-positive cells,[1],10.1 ± 1.1%
C=CCNC1=C2C[C@@H](C)C[C@H](OC)[C@H](O)[C@@H](C)C=C(C)[C@H](OC(N)=O)[C@@H](OC)C=CC=C(C)C(=O)NC(=CC1=O)C2=O [17-AAG (Tanespimycin)],percent Bodipy-positive cells,[1],67.6 ± 0.98%
CCCCCCCCCCCCCCCC(=O)C1=C(O)[C@@H](CO)OC1=O,percent Bodipy-positive cells,library stock concentration: 13.6 mM,15.5 ± 2.8%
CNCCC[C@]12CC[C@H](c3ccccc31)c1ccccc12.Cl [Maprotiline hydrochloride],percent Bodipy-positive cells,,91.2 ± 3.8%
COc1cc2ncn(-c3cc(OCc4ccccc4C(F)(F)F)c(C(N)=O)s3)c2cc1OC,percent Bodipy-positive cells,[1],64.5 ± 2.2%
"CCCCC/C=C\C/C=C\C/C=C\C/C=C\CCCC(=O)O [Arachidonic acid (20:4, n-6)]",percent Bodipy-positive cells,[5],12.3 ± 3.2%
CCCCC/C=C\C/C=C\C/C=C\C/C=C\CCCC(=O)O [Arachidonic Acid],percent Bodipy-positive cells,[5],31.6 ± 25%
Cc1cc(C)c(S(=O)(=O)Nc2cccc(C(F)(F)F)c2)c(C)c1,percent Bodipy-positive cells,[1],26.7 ± 14%
CN1C2CCC1CC(OC(=O)C(O)c1ccccc1)C2 (configuration not stated) [Homatropine Bromide],percent Bodipy-positive cells,[2],12 ± 1.5%
same,percent Bodipy-positive cells,[1],31.1 ± 12%
CN1C2CCC1CC(OC(=O)C(O)c1ccccc1)C2 (configuration not stated) [Homatropine bromide],percent Bodipy-positive cells,[1],16.3 ± 5.4%
"CC(N)(Cc1ccc(O)c(O)c1)C(=O)O (racemic) [(?)-3-(3,4-dihydroxyphenyl)-2-methyl-DL-alanine]",percent Bodipy-positive cells,[1],26.1 ± 3.5%
"CN(C)CCC(c1ccc(Br)cc1)c1ccccn1 (single isomer, unassigned; (+)) [(+)-Brompheniramine maleate]",percent Bodipy-positive cells,[1],73.7 ± 9.7%
CC[C@@H](CO)NCCN[C@@H](CC)CO [Ethambutol],percent Bodipy-positive cells,[1],33.1 ± 7.9%
CC[C@@H](CO)NCCN[C@@H](CC)CO [Ethambutol dihydrochloride],percent Bodipy-positive cells,,22.8 ± 0.7%
CC[C@@H](CO)NCCN[C@@H](CC)CO [Ethambutol hydrochloride],percent Bodipy-positive cells,library stock concentration: 7.2 mM,4.87 ± 0.84%
same,percent Bodipy-positive cells,[1],8.38 ± 0.38%
CC[C@@H](CO)NCCN[C@@H](CC)CO [Ethambutol HCl],percent Bodipy-positive cells,[2],7.51 ± 1.4%
same,percent Bodipy-positive cells,[1],28 ± 1.2%
C=CS(=O)(=O)NC1CCN(C(=O)CNc2cc(I)c(Cl)cc2OC)CC1 [K-Ras(G12C) inhibitor 9],percent Bodipy-positive cells,[2],65 ± 5.3%
same,percent Bodipy-positive cells,[1],93.4 ± 3.3%
CCN(CC)CCCCNc1ncc2cc(-c3cc(OC)cc(OC)c3)c(NC(=O)NC(C)(C)C)nc2n1,percent Bodipy-positive cells,[3],12.8 ± 0.73%
same,percent Bodipy-positive cells,[4],17.3 ± 3.5%
O=C(O)CCC/C=C\C[C@@H]1[C@@H](/C=C/C(F)(F)COc2ccccc2)[C@H](O)C[C@@H]1O [Tafluprost (free acid)],percent Bodipy-positive cells,[5],7.78 ± 0.42%
CCN(CC)Cc1ccc2cc(COC(=O)Nc3ccc(C(=O)NO)cc3)ccc2c1.Cl.O [Givinostat (ITF2357)],percent Bodipy-positive cells,[2],86.74 ± 0.62%
same,percent Bodipy-positive cells,[1],96.1 ± 2.3%
